# Experimental data reported in the supplement of paper PMC12462457.
# Where a name gives a salt, the structure may show the parent alone. ± gives the standard deviation of the averaged measurements. This is one part of the list. This data set is noisy: repeats of one test often differ as much as different tests do.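 Imaging of DAPI-stained nuclei was used to count cells; those without phalloidin-stained cytoplasm were treated as dead and excluded. Every well's count was divided by the median of same-plate vehicle wells, then averaged across two replicate plates.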
# System: OVCAR8
# Assay: cell count relative to DMSO vehicle (fold change); higher = more surviving senescent cells (less killing)
# Settings: senescence inducer: cisplatin 10 µM 48 h, then 6 d recovery (CP senescent), exposure time 24 h
SMILES,cell count (compound dose 1 µM),cell count (compound dose 5 µM)
COc1cc(O)c(C(=O)/C=C/c2ccc(O)cc2)c(OC)c1 [Flavokawain C],0.963 ± 0.18,1.08 ± 0.13
CCn1cc(-c2ccc3c(c2)CCN3C(=O)Cc2cccc(OC(F)(F)F)c2)c2c(N)ncnc21,0.996 ± 0.12,1.03 ± 0.1
CNC(=O)c1cc(Oc2ccc(NC(=O)Nc3ccc(Cl)c(C(F)(F)F)c3)cc2)ccn1 [Sorafenib Tosylate],1.2 ± 0.035,0.798 ± 0.47
CNC(=O)c1cc(Oc2ccc(NC(=O)Nc3ccc(Cl)c(C(F)(F)F)c3)cc2)ccn1 [Sorafenib],1.2 ± 0.27,1.22 ± 0.13
CNC(=O)c1ccccc1Nc1cc(Nc2ccc(N3CCOCC3)cc2OC)ncc1C(F)(F)F,0.984 ± 0.18,0.879 ± 0.29
COc1cccc2c1C(=O)c1c(O)c3c(c(O)c1C2=O)C[C@@](O)(C(C)=O)C[C@@H]3O[C@H]1C[C@H](N)[C@H](O)[C@H](C)O1 [Daunorubicin (hydrochloride)],0.627 ± 0.014,0.336 ± 0.2
N#Cc1cc(N2CCC(C(=O)N3N=CC[C@H]3c3cc(F)cc(F)c3)CC2)ncn1,0.819 ± 0.021,0.835 ± 0.086
Cc1ccc(S(=O)(=O)Cc2nc(-c3ccc(C(=O)NCc4cccnc4)cc3)oc2C)cc1,1.33 ± 0.078,0.961 ± 0.19
COc1ccc(C(CC(=O)N2CCCC2)c2c(OC)cc(OC)c3c(-c4ccccc4)cc(=O)oc23)cc1 (centres undefined),1.22 ± 0.044,1.09 ± 0.13
Cc1cn([C@H]2C=C[C@@H](CO)O2)c(=O)[nH]c1=O [Stavudine],1.31 ± 0.072,0.882 ± 0.088
Cc1ccc2nc(CN(CCN(Cc3nc4ccc(C)cc4[nH]3)Cc3nc4ccc(C)cc4[nH]3)Cc3nc4ccc(C)cc4[nH]3)[nH]c2c1,1.02 ± 0.1,1.11 ± 0.1
CCc1ccc(-c2nc(CSCC(=O)NCCc3ccccc3)c(C)o2)cc1,0.838 ± 0.1,0.594 ± 0.078
N#CCNC(=O)c1ccc(-c2ccnc(Nc3ccc(N4CCOCC4)cc3)n2)cc1 [Momelotinib],0.88 ± 0.066,0.914 ± 0.026
CS(=O)(=O)OCCCCOS(C)(=O)=O,0.367 ± 0.1,0.457 ± 0.0064
CC1(C)CCC(c2ccc(Cl)cc2)=C(CN2CCN(c3ccc(C(=O)NS(=O)(=O)c4ccc(N[C@H](CCN5CCNCC5)CSc5ccccc5)c(S(=O)(=O)C(F)(F)F)c4)cc3)CC2)C1 [Navitoclax-piperazine],0.404 ± 0.026,0.145 ± 0.063
O=C(/C=C/c1ccc(O)cc1)c1ccc(O)cc1O [Isoliquiritigenin],1.22 ± 0.042,1.1 ± 0.16

# A few values from the entries so far:
# Under cell count (compound dose 5 µM), Cc1ccc2nc(CN(CCN(Cc3nc4ccc(C)cc4[nH]3)Cc3nc4ccc(C)cc4[nH]3)Cc3nc4ccc(C)cc4[nH]3)[nH]c2c1 is entered as 1.11 ± 0.1
# Under cell count (compound dose 5 µM), CNC(=O)c1cc(Oc2ccc(NC(=O)Nc3ccc(Cl)c(C(F)(F)F)c3)cc2)ccn1 [Sorafenib Tosylate] is entered as 0.798 ± 0.47

# Following part:

SMILES,cell count (compound dose 1 µM),cell count (compound dose 5 µM)
Oc1c(C(Nc2ccccn2)c2cccs2)ccc2cccnc12 (centres undefined),1.35 ± 0.15,1.32 ± 0.082
Oc1ccc(C(c2c[nH]c3ccccc23)c2c[nH]c3ccccc23)cc1,0.803 ± 0.0014,0.749 ± 0.015
CN1CCc2c(c3ccccc3n2Cc2ccc(C(=O)NO)cc2)C1 [Tubastatin A HCl],0.882 ± 0.025,0.973 ± 0.025
CN1CCc2c(c3ccccc3n2Cc2ccc(C(=O)NO)cc2)C1 [Tubastatin A],1.14 ± 0.05,0.989 ± 0.037
O=C1/C(=C/C=C/c2ccco2)SC(=S)N1NS(=O)(=O)c1ccccc1,0.979 ± 0.41,0.644 ± 0.099
Cc1c(CN2CCN(C(=O)[C@H](C)O)CC2)sc2c(N3CCOCC3)nc(-c3cnc(N)nc3)nc12 [Apitolisib],1.17,0.69 ± 0.34
COc1nc(OCc2cccc(-c3ccccc3)c2C)ccc1CNCCNC(C)=O,1.17 ± 0.1,0.96 ± 0.057
Cn1c(-c2ccccc2C(F)(F)F)nnc1C12CCC(c3noc(C4CC(F)(F)C4)n3)(CC1)CC2,1.45 ± 0.067,1.37 ± 0.17
C=C1C(=O)[C@@]23[C@H](O)C[C@@H]4C(C)(C)C(=O)CC[C@@]4(C)[C@@H]2CC[C@@H]1[C@H]3O [Glaucocalyxin A],0.75 ± 0.15,0.104 ± 0.088
Cc1cc(CN2CCN(c3c(Br)cnc4nc(-c5ccc(N6CCN(C)CC6)cc5)[nH]c34)CC2)no1,1.09 ± 0.044,0.409 ± 0.1
N#Cc1cc2cc(CN3CCC(Nc4ncnc5sc(CC(F)(F)F)cc45)CC3)ccc2[nH]1,1.2 ± 0.19,0.837 ± 0.13
Cc1cccc(CC(=O)N2CCc3c2ccc(-c2cn(C)c4ncnc(N)c24)c3F)n1,0.95 ± 0.091,0.996 ± 0.023
O=c1c(O[C@@H]2O[C@H](CO)[C@H](O)[C@H](O)[C@H]2O)c(-c2ccc(O)c(O)c2)oc2cc(O)cc(O)c12 [Hyperoside],1.02 ± 0.13,0.939 ± 0.19
CCn1c2ccccc2c2cc(CNCc3ccccc3OC)ccc21,0.983 ± 0.14,1.04 ± 0.12
COCCOc1cc2nccc(Nc3n[nH]c(C)c3C)c2cc1S(=O)(=O)C(C)(C)C [RIP2 kinase inhibitor 2],1.23 ± 0.22,0.9 ± 0.035
CC[C@@H](C)Nc1cc(C(=O)N[C@H]2C[C@H]3CC[C@@H](C2)N3c2ccc(C(=O)C3CC3)cn2)c(C)cc1C(N)=O,0.432 ± 0.034,0.469 ± 0.096
